Earlier results on one compound are cited in publication PMC11223151 (ACS Omega, 2024).

Each structure is given as a SMILES string.

For this data set the following is noted: acidic or neutral pH, i.e., water; cited from earlier work.

As for `COc1cc(/C=C/C(=O)CC(=O)/C=C/c2ccc(O)c(OC)c2)ccc1O` [curcumin], the solubility result is “insoluble”.
